About 210 (0.4%) of roughly 52,000 sequences were called active.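 How the source made its calls: active means gene whose silencing raises cell survival under the drug, median off-target-corrected z-score across its silencing RNAs 2 or more; inactive means the rest.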 The list shows a part of the results.
Assay: Resistance to Poly (ADP-Ribose) Polymerase inhibitor: Gene Identification via Genome-wide siRNA Screen
Settings: mouse BRCA2 R2336H ES cells, olaparib, CellTiter-Glo viability; stronger effect = higher value
Procedure, shortened: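 Mouse BRCA2 R2336H ES cells were reverse-transfected with siRNA (20 nM final), treated at 48 h with 500 nM olaparib, and read by CellTiter-Glo after 72 h. Scores: MAD-based z per siRNA, median per gene, seed off-target correction.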

Row | Sequence | z-score
1 | GCUAUUGGGACUUAGAACATT against Slc26a9 | inactive: -0.56
2 | CGAAGACCCUCAUAUAGAATT against Crem | inactive: -0.238
3 | GGAUGGAAAAUAAAACAGGTT against Hoxb7 | inactive: -0.802
4 | GCCUAUACUAUAGAAUUACTT against Rutbc1 | inactive: 1.92
5 | GGAGGAUCUUGAGUUGGAGTT against 4930579G22Rik | inactive: -1.52
6 | CUUACAGUUGCGUCCACUGTT against Ypel4 | inactive: -1.37
7 | CCUACAACAGAUGUGCAGCTT against BC017647 | inactive: -0.88
8 | GGUGAACGAUGUCAAUAAGTT against Pdxk | inactive: -0.0358
9 | GGAGUCCUAUGUGCUGAAATT against Treml4 | inactive: 0.638
10 | GUUCCCAAAGUCUCAUGUUTT against Mef2b | inactive: -0.679
11 | GCAUCCCAGAUAUUGAGCATT against Arrdc1 | inactive: 0.319
12 | GGUGUUGUGCACAUAUAUGTT against Tom1l2 | inactive: -0.359
13 | CCACCUGUCGAGAUGUCGUTT against Ppp1r13b | inactive: 0.0805
14 | CCAACACCUAAUAUUACUCTT against Lrig2 | inactive: 1.05
15 | GGUAGAGCCUGACAUCAACTT against Ppp2r3a | inactive: 0.506
16 | GGUCGAUAUAAUCCUAGAGTT against Chrna5 | inactive: -0.793
17 | GCCAUACGCUGACCUUUCATT against Sp7 | inactive: 3
18 | GGGUGAUUUCUAUUCACUATT against Pam | inactive: 0.47
19 | GGAAUUCAGCGAUUUAUACTT against Smox | inactive: 1.41
20 | GGUCACGUCAGCAAAGCAATT against B930095G15Rik | inactive: -0.384
21 | GCCACAAGUAGUUGUGGUATT against Akr1c20 | inactive: 0.699
22 | GGACCCUCUGGAUUAAUCGTT against Mrpl20 | inactive: 1
23 | GGAAUUGGGUAGUACAAAATT against Irak1 | inactive: 0.537
24 | GGAAGAUCCCAGAAUUAACTT against 3110038B19Rik | inactive: 0.715
25 | CCCUAUUAGUGGAAGCAUGTT against 6720487G11Rik | inactive: 0.0848
26 | GGAAAAAGAGAAGACCUGCTT against AI836376 | inactive: -0.178

Reformatted: entries from further up
Row	Sequence	z-score
9	GGAGUCCUAUGUGCUGAAATT against Treml4	inactive: 0.638
15	GGUAGAGCCUGACAUCAACTT against Ppp2r3a	inactive: 0.506
19	GGAAUUCAGCGAUUUAUACTT against Smox	inactive: 1.41

More records

Row | Sequence | z-score
27 | CGAUCCAUUUCCUUACGACTT against Cyp20a1 | inactive: -0.493
28 | GGACAUCAACAUUAUCACUTT against Chn1 | inactive: 0.269
29 | GGCAAAAUAAGGAGCUAGATT against Itpkc | inactive: 0.618
30 | CGAAUGUUCGAGGUUUAUUTT against Ctdspl | inactive: 1.27
31 | CCAUGGUCCUUGUCGUCAUTT against Kir3dl1 | inactive: 2.36
32 | GGCCUGUAAAAACUAUUGGTT against Mcpt4 | inactive: -0.339
33 | GGGCAUGAGAAAUCCACAGTT against Psx2 | inactive: 0.121
34 | GGAGCAAUCUGUUAAACUATT against B130052G07Rik | inactive: -0.7
35 | GGUGGUUGAAGAAAUGGCUTT against Timm8a | inactive: 0.481
36 | GCACAUUGGCAUUGUGUAUTT against Pdxk | inactive: 1.38
37 | GCCCUUAACAGAAAAACUATT against Hmgcl | inactive: 0.453
38 | GGACUGAUUGUUUUAUGCUTT against Gdap10 | inactive: 0.496
39 | GGAAAAACGUGGUGAACUATT against Zfhx1b | inactive: -0.407
40 | GGACUUGGUGGUAAUCGACTT against A530089I17Rik | inactive: -1.07
41 | GGAGCUACCUCUGGAUACATT against 4930538K18Rik | inactive: 1.2
42 | GCCAAUUGAGUCGUCUAUCTT against Rps6ka1 | inactive: -0.981
43 | CGAGUUCCACAGUGAAAUATT against Cyp2c70 | inactive: -0.426
44 | GCGGUGCUGUUUUCCUUAUTT against Dpagt1 | inactive: 0.952
45 | GCAUCCUUGACCGAUACUATT against Psmb2 | inactive: -3.34
46 | GGAAUACAAAUUCAAGAUCTT against AF119384 | inactive: 0.952
47 | CCAGCUUUCAUUAACUUUATT against Ppp1r10 | inactive: 0.108
48 | GCAACCAUUUAAGAAGACCTT against Tnfrsf9 | inactive: -0.205
49 | GGUGAUGAAAAGAAUUGCATT against Pitrm1 | inactive: -0.479
50 | GCGUAUCAAGAAUUUGUCCTT against Mtus1 | inactive: 1.88
51 | CCUGAGAAAACUUCUUACUTT against Maged1 | inactive: -0.318
52 | GGCGGAUACUUGAUCGAAATT against Sec6l1 | inactive: 0.113

Row | Sequence | z-score
53 | GCAGGUUUACCAGUUUUUCTT against Lmo6 | inactive: 0.389
54 | GGAAAGUCACUCCUUAUAUTT against 5830483C08Rik | inactive: -0.893
55 | CCAAAAAGAGCGAUUACCCTT against Shc1 | inactive: 2.4
56 | GGAAAAAAACCGCUAUGUATT against Ptpra | inactive: 0.294
57 | GGGAAGAUUUUUCUGAUCUTT against Kcnk13 | inactive: 0.351
58 | CCCUUUAUUAUUCCACUGUTT against Olfr530 | inactive: -1.09
59 | GGAACAACUUUCAUCUCACTT against Anxa10 | inactive: -0.888
60 | GGGAACAUGUGGAAGUAUGTT against 2410091C18Rik | inactive: -1.17
61 | GGUGAAAGCAGCCAUUAAATT against Akr1a4 | inactive: -1.05
62 | GCCUGGUCUCACUAUGUAGTT against Hpvc2 | inactive: 0.728
63 | GGCAAAAAGUCAUUGCCAATT against Slc26a9 | inactive: -0.775
64 | GGGUGCUGAAAUGAAGCAUTT against G430090F17Rik | inactive: -0.427
65 | GGAAAAGAAGAGGAUGGAGTT against Vpreb1 | inactive: -0.713
66 | GCUUCAGACGUAAUUUACUTT against Morc | inactive: 0.334
67 | UCUGCGCACUAAAUGCAUCTT against Olfr46 | inactive: -0.406
68 | CGAAGGAUUCUUUUGUACUTT against Mib1 | inactive: 1.85
69 | GCCAUAGCCAAUGAAUAUGTT against 2810405J04Rik | inactive: 0.464
70 | GGAAUUUUAUCCUGUAUGCTT against D4Ertd89e | inactive: 0.37
71 | GGCGUAUUCUGGUAUCCAGTT against Cugbp1 | inactive: 1.35
72 | GCAAAGAUAACAGUAUGUUTT against Grinl1a | inactive: 0.651
73 | GGAAAUAGAGAAGAAAUUGTT against Nelf | inactive: 0.688
74 | GGACAACUCAAUUCUAAAATT against 4921522P10Rik | inactive: 0.276
75 | CCGCCAAAGAUUUUAACCCTT against 1810055E12Rik | inactive: 0.809
76 | GCUUGAUGGACAGUGACGATT against Dhrs3 | inactive: 1.13
77 | GGAACUGCAUCUGCACUAATT against Olfr683 | inactive: 1.07
78 | GGCAUUCAUGACAAUGGCUTT against Rab1b | inactive: 3.73

Taken from above.
For z-score, GGCAUUCAUGACAAUGGCUTT against Rab1b has inactive: 3.73
For z-score, GGAAAAAGAGAAGACCUGCTT against AI836376 has inactive: -0.178

Following part

Row | Sequence | z-score
79 | GGAUGAUGAAAACAAAGAATT against Skp1a | inactive: -0.359
80 | CCACGCUCUCAAGGUAUAGTT against Cyp2d22 | inactive: -0.175
81 | CCCGAAUCUCAGCGUAGAATT against MGC5739 | inactive: 0.777
82 | CUAUCUGACCAUAAUGAAATT against Olfr1248 | inactive: 0.231
83 | GCUGUUCUAAUUCAUAAACTT against A230072I16Rik | inactive: 0.29
84 | GGCACCUAUCACAUCUAUCTT against Tex21 | inactive: -1.37
85 | CGAGUGUAAUGUGGUGGAATT against Npm3 | inactive: -0.74
86 | GGUACGAAGGAAAAUUUACTT against 2810407A14Rik | inactive: 1.59
87 | GCUCGACCAAAAAACAACCTT against Emilin2 | inactive: 0.471
88 | GCUCAAAGGACCUCUGAGCTT against Slc29a2 | inactive: 0.486
89 | CCAAUUCACUUAGGAGCUGTT against Psma4 | inactive: -3.66
90 | GGUGCUCUCAGGAAAGUUGTT against Olfr1157 | inactive: -0.759
91 | GGGUCAUCCAAAUGGUUUGTT against Grm6 | inactive: 1.44
92 | CCGUUCACAAGAAUUACACTT against Grb2 | inactive: -0.0623
93 | GCACUGUGAAUUUGUCAUUTT against Umps | inactive: -0.00503
94 | GGAAACAGAAUGGAGUAAUTT against Rev1l | inactive: 0.0758
95 | GGUGUCAGCUUACCAUUCATT against 1810015M01Rik | inactive: 1.26
96 | CGGAUUCACAAGAACACCUTT against 4732496O08Rik | inactive: 2.3
97 | GGUCGUAAAAAUUGAAAUCTT against Lhcgr | inactive: 0.189
98 | GGGUUCUAGGUUGUUUAUGTT against 4932409I22Rik | inactive: 0.485
99 | GGCCAAGAUGACCAUCUCUTT against Cspg4 | inactive: -0.996
100 | GGUUCAAGAAGUUUUGCUCTT against Tnfrsf9 | inactive: 0.165
101 | GGGCUGGAGUCUGAUACAUTT against Rbm5 | inactive: -1.41
102 | GGCAGAUCUAGGAUAGAAGTT against Fbxo44 | inactive: -0.253
103 | CCCACUUUCUUUGAUAACUTT against Bcl2l11 | inactive: 0.467
104 | GGUCACUAGUGACAAAUGUTT against Fmo4 | inactive: 0.801

— PubChem BioAssay AID1347423 (Functional Genomics Laboratory (NCATS/FGL), 2020)
